Measurements reported in PubChem BioAssay AID1671195 (Yale University, 2021).
Here is an unselected part of about 22,000 deposited reagents. In the full data, about 1,510 (6.9%) got an active call. 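Active includes knockdowns raising or lowering LDL uptake; positive z-scores mean more uptake, negative mean less.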 A number with no mark means an inactive call.

Purpose: 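Genes whose knockdown alters LDL uptake in liver cancer cells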 (primary screen)
Cell system: human Huh7 hepatoma cells
Knock-down reagent: siRNA pool against human genes, 18 nM
Duration: about 2 to 2.5 days of knockdown, then 8 h LDL uptake
Challenge: DiI-labelled LDL at 30 µg/ml for 8 h, in lipoprotein-deficient serum medium
Measured: 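Per-cell DiI-LDL intensity by automated imaging; well means scaled to the plate median and given as a robust z-score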
Reading the numbers: robust z-score: higher = more LDL uptake after knockdown
Hit rule: 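a gene counts as active if at least two replicate z-scores exceed ±2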

With knock-down of EIF2B1 (eukaryotic translation initiation factor 2B subunit alpha) the results were robust z-score, replicate 1 = -0.153; robust z-score, replicate 2 = -0.945; robust z-score, replicate 3 = -0.385.
With knock-down of NOC3L (NOC3 like DNA replication regulator), the screen gave robust z-score, replicate 1 = 0.68; robust z-score, replicate 2 = 0.667; robust z-score, replicate 3 = 1.2.
CDH4 (cadherin 4) showed robust z-score, replicate 1 = -0.659; robust z-score, replicate 2 = -1.11; robust z-score, replicate 3 = -0.968.
With knock-down of NUDT6 (nudix hydrolase 6), the record shows robust z-score, replicate 1 = -0.99; robust z-score, replicate 2 = -0.706; robust z-score, replicate 3 = -0.682.
YPEL2 (yippee like 2) showed robust z-score, replicate 1 = -0.385; robust z-score, replicate 2 = 0.171; robust z-score, replicate 3 = 0.0228.
Depletion of C8orf74 (chromosome 8 open reading frame 74) came out at: robust z-score, replicate 1 = -0.285; robust z-score, replicate 2 = -0.515; robust z-score, replicate 3 = -0.473.
ANG (angiogenin) scored robust z-score, replicate 1 = 2.69 (active); robust z-score, replicate 2 = 2.32; robust z-score, replicate 3 = 1.75.
Against SERPINA7 (serpin family A member 7), the entry reads robust z-score, replicate 1 = 1.33 (active); robust z-score, replicate 2 = 4.65; robust z-score, replicate 3 = 2.79.
Depletion of SASH3 (SAM and SH3 domain containing 3) resulted in: robust z-score, replicate 1 = -2.06 (active); robust z-score, replicate 2 = -2.09; robust z-score, replicate 3 = -2.13.
With knock-down of KRTAP5-11 (keratin associated protein 5-11), the record shows robust z-score, replicate 1 = 0.567; robust z-score, replicate 2 = 0.0964; robust z-score, replicate 3 = 0.501.
PTPN5 (protein tyrosine phosphatase non-receptor type 5) scored robust z-score, replicate 1 = 0.847; robust z-score, replicate 2 = 0.14; robust z-score, replicate 3 = 0.0965.
For PLXNB3 (plexin B3), the entry reads robust z-score, replicate 1 = 1.2; robust z-score, replicate 2 = 1.52; robust z-score, replicate 3 = 0.341.
Silencing of PRKAB2 (protein kinase AMP-activated non-catalytic subunit beta 2) came out at: robust z-score, replicate 1 = 0.185; robust z-score, replicate 2 = 1.29; robust z-score, replicate 3 = 1.95.
Silencing of VPS29 (VPS29 retromer complex component) resulted in: robust z-score, replicate 1 = -0.663; robust z-score, replicate 2 = 0.631; robust z-score, replicate 3 = -0.99.
For CDK5P1 (cyclin dependent kinase 5 pseudogene 1), the values are robust z-score, replicate 1 = 0.685; robust z-score, replicate 2 = 0.674; robust z-score, replicate 3 = 1.15.
For GPHB5 (glycoprotein hormone subunit beta 5), the values are robust z-score, replicate 1 = -0.638; robust z-score, replicate 2 = 0.823; robust z-score, replicate 3 = -0.462.
Silencing of C19orf47 (chromosome 19 open reading frame 47) gave: robust z-score, replicate 1 = 0.75; robust z-score, replicate 2 = -0.084; robust z-score, replicate 3 = -0.588.
OR8G2P (olfactory receptor family 8 subfamily G member 2 pseudogene) showed robust z-score, replicate 1 = -1.29; robust z-score, replicate 2 = -1.06; robust z-score, replicate 3 = -1.03.
LOC387897 (retired record) scored robust z-score, replicate 1 = -1.44; robust z-score, replicate 2 = -1.55; robust z-score, replicate 3 = -1.21.
ZNF432 (zinc finger protein 432) gave robust z-score, replicate 1 = -1.12; robust z-score, replicate 2 = -1.27; robust z-score, replicate 3 = -1.28.
Against LY6E (lymphocyte antigen 6 family member E) the deposit lists robust z-score, replicate 1 = -0.455; robust z-score, replicate 2 = -1.4; robust z-score, replicate 3 = -0.147.
For MUL1 (mitochondrial E3 ubiquitin protein ligase 1) the deposit lists robust z-score, replicate 1 = 0.214; robust z-score, replicate 2 = 1.75; robust z-score, replicate 3 = 1.91.
LOC400748 gave robust z-score, replicate 1 = -0.188; robust z-score, replicate 2 = -0.643; robust z-score, replicate 3 = -0.211.
For E2F5 (E2F transcription factor 5) the deposit lists robust z-score, replicate 1 = 1.47; robust z-score, replicate 2 = 1.09; robust z-score, replicate 3 = 0.134.

Entries listed above called active, once more:
ANG (angiogenin) → robust z-score, replicate 1: 2.69 (active); robust z-score, replicate 2: 2.32; robust z-score, replicate 3: 1.75
SERPINA7 (serpin family A member 7) → robust z-score, replicate 1: 1.33 (active); robust z-score, replicate 2: 4.65; robust z-score, replicate 3: 2.79
SASH3 (SAM and SH3 domain containing 3) → robust z-score, replicate 1: -2.06 (active); robust z-score, replicate 2: -2.09; robust z-score, replicate 3: -2.13
